PubChem BioAssay AID686937 | Drosophila RNAi Screening Center – 2013
Purpose: 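Genes whose loss weakens secretory pathway function in fly cells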 (primary screen). Cells: Drosophila S2 cells expressing secreted horseradish peroxidase. Reagents: long dsRNA against Drosophila genes. Time to read-out: about 5.5 days (5 days dsRNA, then 12 h reporter induction). Treatment: reporter expression induced after 5 days of dsRNA, read 12 h later; inducer not stated. Read-out: 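Chemiluminescent measurement of peroxidase in the medium 12 h after reporter induction, following 5 days of dsRNA, given as a z-score per plate; higher means more secretion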. Reading the numbers: z-score: higher = more reporter secreted into medium.
The deposit covers about 23,000 reagents; this is a random part of those that have a named target and a result. 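Reduced-secretion tags in replicate 1 do not always agree with the z-scores; no criterion for assigning the tags was given.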 Not all columns of the deposit are shown. Not stated in the record: the amount of reagent.

The first 3 entries, ahead of the listing:
gene,dsRNA,"z-score, replicate 1","z-score, replicate 2","z-score, replicate 3"
CG14113,DRSC10116,0.12,0.29,
Klf15 (Kruppel-like factor 15),DRSC17742,0.37,0.39,
CG32284,DRSC08025,0.47,0.1,

The listing, repeating the preview:
gene,dsRNA,"z-score, replicate 1","z-score, replicate 2","z-score, replicate 3"
CG14113,DRSC10116,0.12,0.29,
Klf15 (Kruppel-like factor 15),DRSC17742,0.37,0.39,
CG32284,DRSC08025,0.47,0.1,
CG9297,DRSC16469,0.23,0.29,
east (enhanced adult sensory threshold),DRSC18770,0.47,0.33,
CG13068,DRSC09951,0.37,0.23,
128up (upstream of RpIII128),DRSC05027,0.3,0.28,
Obp19c (Odorant-binding protein 19c),DRSC20528,0.35,0.54,
RpS19a (Ribosomal protein S19a),DRSC20281,-3.26,-3.86,
exu (exuperantia),DRSC07615,0.55,0.18,
CG34006 (retired record),DRSC13817,0.35,-1.09,
mbo (members only),DRSC16123,0.07,-0.09,
yellow-f2,DRSC16372,0.15,0.34,
CG17575,DRSC06682,0.3,0.55,
Ndfip (Nedd4 family interacting protein),DRSC11201,0.33,0.25,
CG14013,DRSC02344,-0.74,-0.28,
CG4133,DRSC00639,-0.38,-0.1,
Cyp28d1 (Cytochrome P450 28d1),DRSC03298,0.12,0.35,
Cyp28d1 (Cytochrome P450 28d1),DRSC21331,0.12,-0.32,
CG13760,DRSC18617,0.42,0.42,
Dr (Drop),DRSC17002,0.49,0.23,0.46
Dr (Drop),DRSC22708,-1.39,-0.99,
zye,DRSC11784,0.3,0.16,
CG14518,DRSC14870,0.27,0.58,
VhaAC45 (Vacuolar H[+] ATPase AC45 accessory subunit),DRSC07058,-0.46,-0.72,
PK1-R (Pyrokinin 1 receptor),DRSC16577,0.42,0.46,
Cyp4ac1 (Cytochrome P450 4ac1),DRSC03302,0.46,0.28,-0.24
clumsy,DRSC03111,0.31,0.3,
CG12115,DRSC17811,0.47,0.4,
CG15879,DRSC08487,0.03,0.13,
Obp83ef (Odorant-binding protein 83ef),DRSC12268,0,0.27,
Drl-2 (Derailed 2),DRSC05393,0.32,0.16,
Drl-2 (Derailed 2),DRSC06155,0.18,0.23,
Drl-2 (Derailed 2),DRSC06858,-0.57,-0.4,
